Test results from publication PMC7616425.
Changes are numbered by the printed parent chain. These are yes or no findings as the source states them, for the method shown. Some results given as binding are weak or reduced against the parent protein; the word gives no strength.

Protein sequences, listed by entry. Tags and fused reporters are not part of them.
UniProt P60953: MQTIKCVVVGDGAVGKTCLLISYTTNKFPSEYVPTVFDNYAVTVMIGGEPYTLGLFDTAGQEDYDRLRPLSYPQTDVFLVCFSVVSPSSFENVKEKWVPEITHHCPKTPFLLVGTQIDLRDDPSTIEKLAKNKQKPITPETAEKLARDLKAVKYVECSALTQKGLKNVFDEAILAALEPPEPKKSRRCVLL

Columns and labels:
[1] = target: Cdc42, homogeneously geranylgeranylated in vitro (UniProt P60953); assay: solution NMR (15N R2 relaxation, chemical-shift perturbations); triple-labeled RhoGDI with excess unlabeled geranylgeranylated Cdc42; the complex separated from free Cdc42 by size exclusion chromatography, no detergent; 25 °C; both purified
[2] = target: Cy3-labeled, prenylated Cdc42 (UniProt P60953); assay: FRET or BRET; dissociation assay: 80 nM dual-labeled complex (Alexa647 on RhoGDI1, Cy3 on Cdc42) mixed with excess (5 μM) unlabeled GDI; mono-exponential fits; KD calculated from the measured dissociation rate constant and the association rate constant measured for wt (assumed for the mutants); both purified

B1: full-length RhoGDI1 (residues 1 to 204), bovine (protein, UniProt P19803 1-204)
chain: MAEQEPTAEQLAQIAAENEEDEHSVNYKPPAQKSIQEIQELDKDDESLRKYKEALLGRVAVSADPNVPNVVVTRLTLVCSTAPGPLELDLTGDLESFKKQSFVLKEGVEYRIKISFRVNREIVSGMKYIQHTYRKGVKIDKTDYMVGSYGPRAEEYEFLTPMEEAPKGMLARGSYNIKSRFTDDDRTDHLSWEWNLTIKKEWKD
modifications: triply labeled (2H, 13C, 15N) in the NMR samples
binding [1]: binds

B2: Alexa647-labeled RhoGDI1 L56V (protein, UniProt P19803 1-204)
chain: B1 chain with L56V
modifications: Alexa647 acceptor (site not stated)
binding [2]: binds

B3: Alexa647-labeled RhoGDI1 L56A (protein, UniProt P19803 1-204)
chain: B1 chain with L56A
modifications: Alexa647 acceptor (site not stated)
binding [2]: binds
